This is an account of results in article PMC11615386, “Phosphorylation-mediated conformational change regulates human SLFN11” (Nature Communications, 2024).

For test [1], the target named is T1, SLFN11 phosphomimetic mutant S753D (human), Q7Z7L1.
T1 chain: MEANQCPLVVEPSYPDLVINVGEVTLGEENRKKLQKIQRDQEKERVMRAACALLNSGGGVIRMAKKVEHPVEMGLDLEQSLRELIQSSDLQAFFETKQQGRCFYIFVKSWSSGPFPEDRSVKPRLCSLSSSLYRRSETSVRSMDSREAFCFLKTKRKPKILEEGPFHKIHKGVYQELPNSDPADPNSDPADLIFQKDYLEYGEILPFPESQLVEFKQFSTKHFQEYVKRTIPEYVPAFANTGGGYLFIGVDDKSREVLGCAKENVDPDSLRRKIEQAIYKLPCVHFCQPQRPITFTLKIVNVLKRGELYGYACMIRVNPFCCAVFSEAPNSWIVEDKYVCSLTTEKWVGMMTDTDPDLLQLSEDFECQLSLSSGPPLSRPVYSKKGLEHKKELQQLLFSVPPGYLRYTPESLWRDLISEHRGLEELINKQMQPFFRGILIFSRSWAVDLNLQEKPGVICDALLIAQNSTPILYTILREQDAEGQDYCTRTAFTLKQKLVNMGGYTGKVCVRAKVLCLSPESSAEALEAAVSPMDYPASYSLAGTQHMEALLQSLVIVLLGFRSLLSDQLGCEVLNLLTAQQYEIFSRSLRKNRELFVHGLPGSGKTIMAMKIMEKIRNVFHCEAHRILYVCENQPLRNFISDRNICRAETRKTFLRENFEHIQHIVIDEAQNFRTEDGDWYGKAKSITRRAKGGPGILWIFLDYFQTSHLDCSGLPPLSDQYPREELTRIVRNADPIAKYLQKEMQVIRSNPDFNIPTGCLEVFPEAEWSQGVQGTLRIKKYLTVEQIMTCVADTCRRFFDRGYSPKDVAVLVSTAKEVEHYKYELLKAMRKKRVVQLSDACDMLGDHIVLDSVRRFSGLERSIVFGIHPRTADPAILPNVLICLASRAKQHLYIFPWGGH
Put plainly: cryo-EM structure; 4 μM SLFN11^S753D with 1 mM ATP; 25 mM Tris-HCl pH 7.5, 2 mM MgCl2, 1 mM DTT; 10 min on ice; data recorded at a tilt angle of 25°; both purified. As to conditions: remark: other sources report otherwise.

In test [2] the target is T1, SLFN11 phosphomimetic mutant S753D …. Nature of the test: mass photometry; 50 nM SLFN11 in 25 mM Tris pH 7.5, 2 mM MgCl2, 1 mM DTT with variable concentrations of NaCl (80 mM NaCl in Fig. 4d, e); dimer to monomers; both purified. As to conditions: remark: other sources report otherwise.

These are yes or no findings as the source states them, for the method shown.

B1: SLFN11 phosphomimetic mutant S753D, Q7Z7L1 1-901 (enzyme)
chain: MEANQCPLVVEPSYPDLVINVGEVTLGEENRKKLQKIQRDQEKERVMRAACALLNSGGGVIRMAKKVEHPVEMGLDLEQSLRELIQSSDLQAFFETKQQGRCFYIFVKSWSSGPFPEDRSVKPRLCSLSSSLYRRSETSVRSMDSREAFCFLKTKRKPKILEEGPFHKIHKGVYQELPNSDPADPNSDPADLIFQKDYLEYGEILPFPESQLVEFKQFSTKHFQEYVKRTIPEYVPAFANTGGGYLFIGVDDKSREVLGCAKENVDPDSLRRKIEQAIYKLPCVHFCQPQRPITFTLKIVNVLKRGELYGYACMIRVNPFCCAVFSEAPNSWIVEDKYVCSLTTEKWVGMMTDTDPDLLQLSEDFECQLSLSSGPPLSRPVYSKKGLEHKKELQQLLFSVPPGYLRYTPESLWRDLISEHRGLEELINKQMQPFFRGILIFSRSWAVDLNLQEKPGVICDALLIAQNSTPILYTILREQDAEGQDYCTRTAFTLKQKLVNMGGYTGKVCVRAKVLCLSPESSAEALEAAVSPMDYPASYSLAGTQHMEALLQSLVIVLLGFRSLLSDQLGCEVLNLLTAQQYEIFSRSLRKNRELFVHGLPGSGKTIMAMKIMEKIRNVFHCEAHRILYVCENQPLRNFISDRNICRAETRKTFLRENFEHIQHIVIDEAQNFRTEDGDWYGKAKSITRRAKGGPGILWIFLDYFQTSHLDCSGLPPLSDQYPREELTRIVRNADPIAKYLQKEMQVIRSNPDFNIPTGCLEVFPEAEWSQGVQGTLRIKKYLTVEQIMTCVADTCRRFFDRGYSPKDVAVLVSTAKEVEHYKYELLKAMRKKRVVQLSDACDMLGDHIVLDSVRRFSGLERSIVFGIHPRTADPAILPNVLICLASRAKQHLYIFPWGGH
For the molecule B1, the binding result is “no binding (tested: 4 μM)” in test [1] and “no binding (tested: 50 nM)” in test [2].
